According to PubChem BioAssay AID2685 (National Center for Advancing Translational Sciences (NCATS), 2010):
The list shows a part of the results. Further columns of the screen follow, without active or inactive calls. Compounds called inactive in the main read-out are mostly missing here. Words in brackets tell the shape of the fitted curve; partial curves, single points and poor fits give uncertain potencies.

Test: qHTS Assay for Lipid Storage Modulators in Drosophila S3 Cells;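 as to cell number change: cells counted by Cell Tracker Red CMTPX staining in the red channel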
Settings: BODIPY lipid droplet fluorescence, 18-24 h; for cell number change: measured here: cell count max response, cells fed with added oleic acid
Procedure, shortened: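 Drosophila S3 cells loaded with oleic acid (400 uM, as added) and compounds at several concentrations; lipid droplets imaged by 488-nm laser-scanning cytometry, 500–530 nm intensity and object ratio to cell channel. Percent activity normalized to 20 uM Triacsin C.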

[1] = measured here: cell number channel AC50, cells fed with added oleic acid
[2] = measured here: lipid fluorescence (Fed channel) AC50, cells fed with added oleic acid

Structure (SMILES) | cell number change | AC50 [1] | AC50 [2]
O=C(O)COc1nsnc1N1CCOCC1 | 7.81% |  | 
CN(C(=O)COC(=O)/C=C/c1ccccc1[N+](=O)[O-])c1ccccc1 | 26.2% | 2.06 µM [rising, full curve, poor fit] | 
COc1cccc(CN2CCN(Cc3cccc4c3OCO4)CC2CCO)c1 (stereo not drawn) | 13% |  | 6.51 µM [rising, single point]
CCCn1c(=O)n(C)c(=O)c2c(SCC(=O)NCc3ccco3)nc(C3CC3)nc21 | 24% |  | 20.6 µM [rising, partial curve]
C#CCOC(=O)CCC(=O)NCCc1ccccc1 | -2.96% |  | 0.58 µM [falling, full curve]
COc1ccccc1N(Cc1ccccc1)S(=O)(=O)c1cccc(C(=O)Nc2cccc(C)n2)c1 | 87.9% | 29.1 µM [rising, single point] | 
CN(C)S(=O)(=O)N1CCCC(C(=O)c2ccc(-c3ccccc3)c(F)c2)C1 (stereo not drawn) | -0.602% |  | 29.1 µM [falling, single point]
COC(=O)c1ccccc1NC(=O)C(CCS(C)(=O)=O)NC(C)=O (stereo not drawn) | 7.88% | 6.51 µM [rising, single point] | 
C=CCOc1ccc(CN(C)C(=O)c2ccc(CNS(=O)(=O)c3ccc(C)c(C)c3)cc2)cc1 | 26.3% |  | 0.82 µM [rising, full curve]
CC(=O)Nc1cc(C)nn1-c1nc(C)cc(C)n1 |  | 0.116 µM [rising, single point] | 
CCOCCCN(Cc1ccco1)C(=O)c1cc2c(=O)[nH]c3ccc(C)cc3c2s1 | -28.1% |  | 29.1 µM [falling, single point]
c1cnc(NCCNc2ncccn2)nc1 | -52.3% | 16.4 µM [falling, single point] | 
COCCn1c(-c2ccc(OC)c(OC)c2)nc2ccccc21 |  | 2.06 µM [rising, partial curve] | 0.731 µM [rising, single point]
CC(C)(C)CC(=O)NCCCN1CCOCC1 | -26.1% |  | 6.51 µM [rising, partial curve, poor fit]
CCn1c(N2CCN(S(=O)(=O)c3ccccc3)CC2)nc2ccccc21 | -13.7% |  | 23.1 µM [falling, partial curve]
COc1ccc(Cn2nnnc2C(c2cccs2)N2CCN(c3ccc([N+](=O)[O-])cc3)CC2)cc1 (stereo not drawn) |  |  | 5.17 µM [rising, full curve]
CC1CCc2cc(F)ccc2N1C(=O)CSc1nnc2c(n1)[nH]c1ccccc12 (stereo not drawn) | 12.6% |  | 16.4 µM [falling, partial curve, poor fit]
Cc1ccc(Nc2nnc(SCC3CCCCO3)s2)cc1 (stereo not drawn) | 12.7% |  | 
CNC(=S)N/N=C/c1cn(CCOc2cccc(OC)c2)c2ccccc12 | 2.24% |  | 0.58 µM [rising, full curve]
O=C(CSc1ccc2c(c1)OCCO2)Nc1ccc2c(c1)OCO2 | 29.2% |  | 
O=C(COC(=O)c1ccc2ncsc2c1)Nc1ncc(Cl)cc1Cl | 29% |  | 

Structure (SMILES) | cell number change | AC50 [1] | AC50 [2]
Cn1cc([N+](=O)[O-])c(C(=O)NC2CCCCCC2)n1 | 17.6% |  | 
CC(C)(C)c1ccc(-n2ncc3c2CCCC3NC(=O)C2(C(N)=O)CC2)cc1 (stereo not drawn) |  | 1.46 µM [falling, partial curve] | 2.91 µM [falling, partial curve]
COc1ccc(NC(=O)C(=O)N/N=C/c2cc(C)n(-c3cccc(Cl)c3Cl)c2C)c(OC)c1 | 38.2% | 29.1 µM [rising, single point] | 
O=C(NCc1cccnc1)C1CC(c2ccccc2O)=NO1 (stereo not drawn) | 38.5% | 18.4 µM [rising, partial curve, poor fit] | 
CCCCOC(=O)c1ccc(NC(=O)C(=O)CC(=O)c2ccc(OC)cc2)cc1 | -44.6% | 29.1 µM [falling, single point] | 
COc1ccc(NC(=O)C#Cc2ccccc2)cc1OC | -16.1% |  | 29.1 µM [falling, single point]
CC(C)C(C)(C#N)NC(=O)CSc1nc2scc(-c3ccccc3)c2c(=O)[nH]1 (stereo not drawn) | 16% |  | 13 µM [rising, partial curve]
Cc1cccc(Oc2ccc(C(=O)NC3CCSC3=O)cn2)c1C (stereo not drawn) | -24.9% |  | 18.4 µM [falling, partial curve, poor fit]
O=C(Nc1ccccc1)NC(Cc1ccc(O)cc1)C(=O)O (stereo not drawn) | 7.27% |  | 
CCOC(=O)c1sc2nc[nH]c(=O)c2c1C | -37.8% | 25.9 µM [falling, single point] | 0.731 µM [falling, full curve, poor fit]
CC1(C)Cc2c(cnn2-c2ccc(F)cc2)C(NC(=O)Cn2cncn2)C1 (stereo not drawn) |  |  | 29.1 µM [falling, single point]
CCCn1ncc(/C=N/O)c1C | 9.94% |  | 29.1 µM [rising, single point]
Cc1ccc(CN2CCNC(=O)C2CC(=O)O)o1 (stereo not drawn) | -42.7% | 3.66 µM [falling, full curve] | 3.66 µM [falling, full curve]
CCOC(=O)N1CCN(C(=O)CNC(=O)c2nn(-c3ccc(OC)cc3)c(=O)c3ccccc23)CC1 | 70.5% | 10.3 µM [rising, partial curve] | 
O=C(c1ccco1)N1CCN(C(=O)c2oc(=O)c3ccccc3c2-c2ccccc2)CC1 | -4.13% |  | 0.651 µM [falling, single point]
Cc1ccc(S(=O)(=O)N(C)c2ccc(C(=O)N3CCOCC3)cc2)cc1 | 0.794% |  | 29.1 µM [rising, single point]
CN(C)S(=O)(=O)c1ccc(C(=O)N(c2ccccn2)c2ccccn2)cc1 | -19.3% | 0.146 µM [falling, full curve, poor fit] | 
Cc1nc(NC(=O)/C=C/c2ccccc2)sc1C(=O)Nc1cccc(Cl)c1 | 1.95% |  | 0.82 µM [rising, full curve, poor fit]
CCCN(CCO)Cc1ccc(Cl)c(Cl)c1 | -6.33% |  | 18.4 µM [falling, single point]
CC(Nc1cc(N2CCN(S(C)(=O)=O)CC2)ccc1[N+](=O)[O-])c1ccccc1 (stereo not drawn) | 8.57% |  | 1.16 µM [falling, single point]
CC(=O)Nc1ccc(C(=O)OCC(=O)N2CCN(C(=O)c3ccco3)CC2)cc1 | 1.01% |  | 2.59 µM [rising, partial curve, poor fit]

Compounds listed so far with a tert-butyl group, in the order listed:
Structure (SMILES) | cell number change | AC50 [1] | AC50 [2]
CC(C)(C)CC(=O)NCCCN1CCOCC1 | -26.1% |  | 6.51 µM [rising, partial curve, poor fit]
CC(C)(C)c1ccc(-n2ncc3c2CCCC3NC(=O)C2(C(N)=O)CC2)cc1 (stereo not drawn) |  | 1.46 µM [falling, partial curve] | 2.91 µM [falling, partial curve]

Additional results

Structure (SMILES) | cell number change | AC50 [1] | AC50 [2]
O=C(CCCn1c(SCC(=O)c2ccccc2)nc2ccccc2c1=O)NCC1CCCO1 (stereo not drawn) | 7.91% | 3.26 µM [falling, single point] | 1.64 µM [falling, partial curve, poor fit]
C=CSc1sc(Cl)c(N2CCOCC2)c1[N+](=O)[O-] | -57.9% | 2.59 µM [falling, full curve] | 
O=C(CSc1nnc(Cc2cc(=O)[nH]c(=O)[nH]2)n1-c1ccccc1)N1CCCc2ccccc21 | -7.02% |  | 6.51 µM [rising, single point]
C#CCOCCOCCOCCNc1nc(N2CCN(C(=O)CCCCCCCCCCNC(=O)[C@H](CCCCN)n3cc(CCCC(=O)O)nn3)CC2)nc(N2CCN(C(=O)CCCCCCCCCCNC(=O)[C@H](CCCCN)n3cc(CCCC(=O)O)nn3)CC2)n1 | 25.3% |  | 
COc1cccc(CNC(=O)N2CCN(S(=O)(=O)c3ccc(Cl)cc3)CC2)c1 | 17.1% |  | 
CC(C)CC(=O)Nc1ccc(-c2nnn(CC(=O)NCc3ccco3)n2)cc1 | -11.9% |  | 
CC1(NC(=O)NCc2ccco2)CCS(=O)(=O)C1 (stereo not drawn) | -7.48% |  | 0.326 µM [falling, full curve, poor fit]
c1ccc(-c2cnc(-c3ccccc3)nc2)cc1 | 35.2% | 9.2 µM [rising, single point] | 
N#CC1(N2CCN(C(=O)c3ccccc3)CC2)CCCCC1 | -2.62% |  | 
OC1(C(F)(F)F)CC(O)(C(F)(F)F)n2nc(-c3ccccc3)cc2N1 (stereo not drawn) |  | 0.146 µM [falling, full curve, poor fit] | 
COc1ccc(S(=O)(=O)N(CC(C)C)CC(C)C)c2cccnc12 | -34.6% | 18.4 µM [falling, single point] | 
CCOC(=O)C(=CNc1cc(C)ccc1C)C(=O)OCC | -3.67% |  | 1.03 µM [rising, full curve]
O=C1CCCN1CCCn1cnc2c([nH]c3ccc(F)cc32)c1=O | -13.9% |  | 
Cc1ccc(O)c(C(=O)c2cnc3c(c2)COc2ccccc2-3)c1 | -38.1% | 18.4 µM [falling, partial curve] | 
COc1ccc(C(=O)NC(=O)COC(=O)c2ccc(C)o2)cc1 | -46.6% | 32.6 µM [falling, single point] | 
Fc1ccc(CCNC(=S)Nc2ccc(F)c(Cl)c2)cc1 | -52.9% | 29.1 µM [falling, single point] | 
CC(C)CCNC(=O)C(C)N(Cc1ccc(F)cc1)C(=O)c1ccc(CN2CCCCC2)o1 (stereo not drawn) |  |  | 2.06 µM [falling, partial curve]
CCc1ccccc1NC(=O)c1cc(-c2cccs2)on1 | 23.8% |  | 13 µM [rising, partial curve]
Cn1c(N)c(C(=O)COC(=O)COc2ccc(Cl)cc2)c(=O)n(C)c1=O | -23.8% |  | 4.61 µM [rising, full curve]
CCOc1ccc(C(=O)N2CCN(c3ccccn3)CC2)cc1 | -7.41% |  | 
Cc1ccc2c(c1)cc(CN(Cc1ccco1)S(=O)(=O)c1ccccc1)c1nnnn12 | 64.1% | 18.4 µM [rising, partial curve] | 1.3 µM [rising, single point]
